The numbers were not newly measured in patent publication US6534088B2, “Fibrate-statin combinations with reduced fed-fasted effects” (SkyePharma Canada Inc., priority 2001, dated 2003), which cites them from elsewhere.

SMILES strings stand for the structures.

For the series the following is noted: oral administration.

Turning to `CC(C)c1c(C(=O)Nc2ccccc2)c(-c2ccccc2)c(-c2ccc(F)cc2)n1CC[C@@H](O)C[C@@H](O)CC(=O)O` [Atorvastatin], the “effect of food on absorption” value was “decreases the rate and extent of drug absorption”.
